The results in this text go back to patent US12419871B2, “Biomolecules involved in Alzheimer's disease” (ELECTROPHORETICS LIMITED, priority 2015, dated 2025).

The data set is described as follows: TMTcalibrator quantification of regulated proteins in AD CSF versus control. Also noted: species or system human. The conditions noted are these: CSF of AD patient versus control; non-modified peptides of each protein summed for three control and three AD cases.

B1: P61278 (protein, UniProt P61278 1-116, looked up)
chain: MLSCRLQCALAALSIVLALGCVTGAPSDPRLRQFLQKSLAAAAGKQELAKYFLAELLSEPNQTENDALEPEDLSQAAEQDEMRLELQRSANSNPAMAPRERKAGCKNFFWKTFTSC
modifications: full-length
In the case of B1, the “Log2 AD/Control” value worked out at 1.03.

B2: Q99884 (protein, UniProt Q99884 1-636, looked up)
chain: MKKLQGAHLRKPVTPDLLMTPSDQGDVDLDVDFAAHRGNWTGKLDFLLSCIGYCVGLGNVWRFPYRAYTNGGGAFLVPYFLMLAICGIPLFFLELSLGQFSSLGPLAVWKISPLFKGAGAAMLLIVGLVAIYYNMIIAYVLFYLFASLTSDLPWEHCGNWWNTELCLEHRVSKDGNGALPLNLTCTVSPSEEYWSRYVLHIQGSQGIGSPGEIRWNLCLCLLLAWVIVFLCILKGVKSSGKVVYFTATFPYLILLMLLVRGVTLPGAWKGIQFYLTPQFHHLLSSKVWIEAALQIFYSLGVGFGGLLTFASYNTFHQNIYRDTFIVTLGNAITSILAGFAIFSVLGYMSQELGVPVDQVAKAGPGLAFVVYPQAMTMLPLSPFWSFLFFFMLLTLGLDSQFAFLETIVTAVTDEFPYYLRPKKAVFSGLICVAMYLMGLILTTDGGMYWLVLLDDYSASFGLMVVVITTCLAVTRVYGIQRFCRDIHMMLGFKPGLYFRACWLFLSPATLLALMVYSIVKYQPSEYGSYRFPPWAELLGILMGLLSCLMIPAGMLVAVLREEGSLWERLQQASRPAMDWGPSLEENRTGMYVATLAGSQSPKPLMVHMRKYGGITSFENTAIEVDREIAEEEESMM
modifications: full-length
As to B2, the “Log2 AD/Control” value is listed as 1.26.

B3: Q9H4F8 (protein, UniProt Q9H4F8 1-434, looked up)
chain: MLPARCARLLTPHLLLVLVQLSPARGHRTTGPRFLISDRDPQCNLHCSRTQPKPICASDGRSYESMCEYQRAKCRDPTLGVVHRGRCKDAGQSKCRLERAQALEQAKKPQEAVFVPECGEDGSFTQVQCHTYTGYCWCVTPDGKPISGSSVQNKTPVCSGSVTDKPLSQGNSGRKDDGSKPTPTMETQPVFDGDEITAPTLWIKHLVIKDSKLNNTNIRNSEKVYSCDQERQSALEEAQQNPREGIVIPECAPGGLYKPVQCHQSTGYCWCVLVDTGRPLPGTSTRYVMPSCESDARAKTTEADDPFKDRELPGCPEGKKMEFITSLLDALTTDMVQAINSAAPTGGGRFSEPDPSHTLEERVVHWYFSQLDSNSSNDINKREMKPFKRYVKKKAKPKKCARRFTDYCDLNKDKVISLPELKGCLGVSKEGRLV
modifications: full-length
For B3, the “Log2 AD/Control” value is listed as 0.91.

B4: Q9BX66 (protein, UniProt Q9BX66 1-1292, looked up)
chain: MSSECDGGSKAVMNGLAPGSNGQDKATADPLRARSISAVKIIPVKTVKNASGLVLPTDMDLTKICTGKGAVTLRASSSYRETPSSSPASPQETRQHESKPGLEPEPSSADEWRLSSSADANGNAQPSSLAAKGYRSVHPNLPSDKSQDATSSSAAQPEVIVVPLYLVNTDRGQEGTARPPTPLGPLGCVPTIPATASAASPLTFPTLDDFIPPHLQRWPHHSQPARASGSFAPISQTPPSFSPPPPLVPPAPEDLRRVSEPDLTGAVSSTDSSPLLNEVSSSLIGTDSQAFPSVSKPSSAYPSTTIVNPTIVLLQHNREQQKRLSSLSDPVSERRVGEQDSAPTQEKPTSPGKAIEKRAKDDSRRVVKSTQDLSDVSMDEVGIPLRNTERSKDWYKTMFKQIHKLNRDTPEENPYFPTYKFPELPEIQQTSEEDNPYTPTYQFPASTPSPKSEDDDSDLYSPRYSFSEDTKSPLSVPRSKSEMSYIDGEKVVKRSATLPLPARSSSLKSSSERNDWEPPDKKVDTRKYRAEPKSIYEYQPGKSSVLTNEKMSRDISPEEIDLKNEPWYKFFSELEFGKPPPKKIWDYTPGDCSILPREDRKTNLDKDLSLCQTELEADLEKMETLNKAPSANVPQSSAISPTPEISSETPGYIYSSNFHAVKRESDGAPGDLTSLENERQIYKSVLEGGDIPLQGLSGLKRPSSSASTKDSESPRHFIPADYLESTEEFIRRRHDDKEKLLADQRRLKREQEEADIAARRHTGVIPTHHQFITNERFGDLLNIDDTAKRKSGSEMRPARAKFDFKAQTLKELPLQKGDIVYIYKQIDQNWYEGEHHGRVGIFPRTYIELLPPAEKAQPKKLTPVQVLEYGEAIAKFNFNGDTQVEMSFRKGERITLLRQVDENWYEGRIPGTSRQGIFPITYVDVIKRPLVKNPVDYMDLPFSSSPSRSATASPQFSSHSKLITPAPSSLPHSRRALSPEMHAVTSEWISLTVGVPGRRSLALTPPLPPLPEASIYNTDHLALSPRASPSLSLSLPHLSWSDRPTPRSVASPLALPSPHKTYSLAPTSQASLHMNGDGGVHTPSSGIHQDSFLQLPLGSSDSVISQLSDAFSSQSKRQPWREESGQYERKAERGAGERGPGGPKISKKSCLKPSDVVRCLSTEQRLSDLNTPEESRPGKPLGSAFPGSEAEQTERHRGGEQAGRKAARRGGSQQPQAQQRRVTPDRSQTSQDLFSYQALYSYIPQNDDELELRDGDIVDVMEKCDDGWFVGTSRRTKQFGTFPGNYVKPLYL
modifications: full-length
Take B4: the “Log2 AD/Control” value stood at 0.82.

B5: Q9BQI5 (protein, UniProt Q9BQI5 1-828, looked up)
chain: MMEGLKKRTRKAFGIRKKEKDTDSTGSPDRDGIQPSPHEPPYNSKAECAREGGKKVSKKSNGAPNGFYAEIDWERYNSPELDEEGYSIRPEEPGSTKGKHFYSSSESEEEEESHKKFNIKIKPLQSKDILKNAATVDELKASIGNIALSPSPVRKSPRRSPGAIKRNLSSEEVARPRRSTPTPELISKKPPDDTTALAPLFGPPLESAFDEQKTEVLLDQPEIWGSGQPINPSMESPKLTRPFPTGTPPPLPPKNVPATPPRTGSPLTIGPGNDQSATEVKIEKLPSINDLDSIFGPVLSPKSVAVNAEEKWVHFSDTSPEHVTPELTPREKVVSPPATPDNPADSPAPGPLGPPGPTGPPGPPGPPRNVLSPLNLEEVQKKVAEQTFIKDDYLETISSPKDFGLGQRATPPPPPPPTYRTVVSSPGPGSGPGPGTTSGASSPARPATPLVPCRSTTPPPPPPRPPSRPKLPPGKPGVGDVSRPFSPPIHSSSPPPIAPLARAESTSSISSTNSLSAATTPTVENEQPSLVWFDRGKFYLTFEGSSRGPSPLTMGAQDTLPVAAAFTETVNAYFKGADPSKCIVKITGEMVLSFPAGITRHFANNPSPAALTFRVINFSRLEHVLPNPQLLCCDNTQNDANTKEFWVNMPNLMTHLKKVSEQKPQATYYNVDMLKYQVSAQGIQSTPLNLAVNWRCEPSSTDLRIDYKYNTDAMTTAVALNNVQFLVPIDGGVTKLQAVLPPAVWNAEQQRILWKIPDISQKSENGGVGSLLARFQLSEGPSKPSPLVVQFTSEGSTLSGCDIELVGAGYRFSLIKKRFAAGKYLADN
modifications: full-length
For B5, the “Log2 AD/Control” value is recorded as 0.72.

B6: P34897 (protein, UniProt P34897 1-504, looked up)
chain: MLYFSLFWAARPLQRCGQLVRMAIRAQHSNAAQTQTGEANRGWTGQESLSDSDPEMWELLQREKDRQCRGLELIASENFCSRAALEALGSCLNNKYSEGYPGKRYYGGAEVVDEIELLCQRRALEAFDLDPAQWGVNVQPYSGSPANLAVYTALLQPHDRIMGLDLPDGGHLTHGYMSDVKRISATSIFFESMPYKLNPKTGLIDYNQLALTARLFRPRLIIAGTSAYARLIDYARMREVCDEVKAHLLADMAHISGLVAAKVIPSPFKHADIVTTTTHKTLRGARSGLIFYRKGVKAVDPKTGREIPYTFEDRINFAVFPSLQGGPHNHAIAAVAVALKQACTPMFREYSLQVLKNARAMADALLERGYSLVSGGTDNHLVLVDLRPKGLDGARAERVLELVSITANKNTCPGDRSAITPGGLRLGAPALTSRQFREDDFRRVVDFIDEGVNIGLEVKSKTAKLQDFKSFLLKDSETSQRLANLRQRVEQFARAFPMPGFDEH
modifications: full-length
For the molecule B6, the “Log2 AD/Control” value was −1.81.

B7: Q6ZV89 (protein, UniProt Q6ZV89 1-423, looked up)
chain: MQKAGAGGRRASDCGLAPHRPRCITKFAQYVGSFPVDDLDTQESVWLVQQQLWALKDCPRRRAVILKFSLQGLKIYSGEGEVLLMAHALRRILYSTWCPADCQFAFMARNPRSPASKLFCHLFVGSQPGEVQILHLLLCRSFQLAYLLQHPEERAQPEPCPGPTGEVPLKPLSSSGGLVREPFGRDQLSQNVHALVSFRRLPAEGLVGSGKELPESEGRARHARLGNPYCSPTLVRKKAIRSKVIRSGAYRGCTYETQLQLSAREAFPAAWEAWPRGPGGHSCLVESEGSLTENIWAFAGISRPCALALLRRDVLGAFLLWPELGASGQWCLSVRTQCGVVPHQVFRNHLGRYCLEHLPAEFPSLEALVENHAVTERSLFCPLDMGRLNPTYEEQDCGPPGRPPRTLRPLSHAKSEAELQGLG
modifications: full-length
Turning to B7, the “Log2 AD/Control” value was −0.80.

B8: Q96PX8 (protein, UniProt Q96PX8 1-696, looked up)
chain: MLLWILLLETSLCFAAGNVTGDVCKEKICSCNEIEGDLHVDCEKKGFTSLQRFTAPTSQFYHLFLHGNSLTRLFPNEFANFYNAVSLHMENNGLHEIVPGAFLGLQLVKRLHINNNKIKSFRKQTFLGLDDLEYLQADFNLLRDIDPGAFQDLNKLEVLILNDNLISTLPANVFQYVPITHLDLRGNRLKTLPYEEVLEQIPGIAEILLEDNPWDCTCDLLSLKEWLENIPKNALIGRVVCEAPTRLQGKDLNETTEQDLCPLKNRVDSSLPAPPAQEETFAPGPLPTPFKTNGQEDHATPGSAPNGGTKIPGNWQIKIRPTAAIATGSSRNKPLANSLPCPGGCSCDHIPGSGLKMNCNNRNVSSLADLKPKLSNVQELFLRDNKIHSIRKSHFVDYKNLILLDLGNNNIATVENNTFKNLLDLRWLYMDSNYLDTLSREKFAGLQNLEYLNVEYNAIQLILPGTFNAMPKLRILILNNNLLRSLPVDVFAGVSLSKLSLHNNYFMYLPVAGVLDQLTSIIQIDLHGNPWECSCTIVPFKQWAERLGSEVLMSDLKCETPVNFFRKDFMLLSNDEICPQLYARISPTLTSHSKNSTGLAETGTHSNSYLDTSRVSISVLVPGLLLVFVTSAFTVVGMLVFILRNRKRSKRRDANSSASEINSLQTVCDSSYWHNGPYNADGAHRVYDCGSHSLSD
modifications: full-length
For B8, the “Log2 AD/Control” value amounted to 0.77.

B9: Q8NHG7 (protein, UniProt Q8NHG7 1-77, looked up)
chain: MGLCFPCPGESAPPTPDLEEKRAKLAEAAERRQKEAASRGILDVQSVQEKRKKKEKIEKQIATSGPPPEGGLRWTVS
modifications: full-length
With B9, the “Log2 AD/Control” value stood at 0.76.

B10: O75494 (protein, UniProt O75494 1-262, looked up)
chain: MSRYLRPPNTSLFVRNVADDTRSEDLRREFGRYGPIVDVYVPLDFYTRRPRGFAYVQFEDVRDAEDALHNLDRKWICGRQIEIQFAQGDRKTPNQMKAKEGRNVYSSSRYDDYDRYRRSRSRSYERRRSRSRSFDYNYRRSYSPRNSRPTGRPRRSRSHSDNDRFKHRNRSFSRSKSNSRSRSKSQPKKEMKAKSRSRSASHTKTRGTSKTDSKTHYKSGSRYEKESRKKEPPRSKSQSRSQSRSRSKSRSRSWTSPKSSGH
modifications: full-length
Take B10: the “Log2 AD/Control” value is on record as 0.79.
